According to the supplement of paper PMC4604168 (melanoma cell lines):
The other results are listed elsewhere or left out. Repeats are few or missing, and single values can be far off.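 Imaging used 1,536-well plates; nuclei positive for cleaved PARP by antibody were divided by total DNA-stained nuclei to yield the apoptosis fraction. Doses for screening kept most cells viable, and cell lines differ markedly in resting and induced cleaved-PARP levels.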

What follows are compounds tested on A2058 (assay: cleaved PARP positive nuclei fraction relative to DMSO control; melanoma cells; higher = more apoptosis). Details: library dose: low library concentration; 72 h.

Compared with `CN(NC(=O)CC(=O)NN(C)C(=S)c1ccccc1)C(=S)c1ccccc1` + CCCCCCCCCCCC1=C(O)C(=O)C=C(O)C1=O [Embelin] (first compound 0.006 µM, partner dose 1.2 µM), `O=C(O)c1ccc(-c2c[nH]c3ncc(-c4ccccc4)cc23)cc1C1CCCC1` + COc1ccc2c(c1)CCC1C2CCC2(C)C(NCCCCCCN3C(=O)C=CC3=O)CCC12 [U73122] (first compound 0.16 µM, partner dose 0.4 µM) is higher in “cleaved PARP positive nuclei fraction” value: 105% for the first, 131% for the second.

Compared with `COc1ccc2c(c1)CCC1C2CCC2(C)C(NCCCCCCN3C(=O)C=CC3=O)CCC12` (stereo unspecified) + O=c1cc(-c2cccc3c2Sc2ccccc2S3)oc(N2CCOCC2)c1 [KU55933] (first compound 0.4 µM, partner dose 1 µM), `CCc1ccc(CCOc2ccc(CC3SC(=O)NC3=O)cc2)nc1` (stereo unspecified) [pioglitazone] + Oc1nc(-c2ccc(C(F)(F)F)cc2)nc2c1CSCC2 [XAV939] (first compound 2 µM, partner dose 2 µM) is higher in “cleaved PARP positive nuclei fraction” value: 53.1% for the first, 187% for the second.

Going from `COc1ccc2c(c1)CCC1C2CCC2(C)C(NCCCCCCN3C(=O)C=CC3=O)CCC12` (stereo unspecified) + Oc1nc(-c2ccc(C(F)(F)F)cc2)nc2c1CSCC2 [XAV939] (first compound 0.4 µM, partner dose 2 µM) to `COc1cc2c(Oc3ccc4[nH]c(C)cc4c3F)ncnc2cc1OCCCN1CCCC1` [cediranib] + COc1cc2ncnc(Nc3ccc(Oc4ccccc4)cc3)c2cc1OC [SrcI1] (first compound 0.4 µM, partner dose 2 µM), the “cleaved PARP positive nuclei fraction” value rises from 55% to 127%.
